Assay [1] concerns the target S. pombe fatty acid synthase subunit FAS2/α (S. pombe (endogenous in K972 cells)) (UniProt Q10289). The assay is described as follows: cryo-EM structure.
Assay [2] concerns the target S. cerevisiae fatty acid synthase subunit FAS2/α (S. cerevisiae (endogenous in W303 or BY4742 cells)) (UniProt P19097). The assay is described as follows: cryo-EM structure.

By UniProt entry, the sequences of proteins in these tests, tags left out.
UniProt P19097: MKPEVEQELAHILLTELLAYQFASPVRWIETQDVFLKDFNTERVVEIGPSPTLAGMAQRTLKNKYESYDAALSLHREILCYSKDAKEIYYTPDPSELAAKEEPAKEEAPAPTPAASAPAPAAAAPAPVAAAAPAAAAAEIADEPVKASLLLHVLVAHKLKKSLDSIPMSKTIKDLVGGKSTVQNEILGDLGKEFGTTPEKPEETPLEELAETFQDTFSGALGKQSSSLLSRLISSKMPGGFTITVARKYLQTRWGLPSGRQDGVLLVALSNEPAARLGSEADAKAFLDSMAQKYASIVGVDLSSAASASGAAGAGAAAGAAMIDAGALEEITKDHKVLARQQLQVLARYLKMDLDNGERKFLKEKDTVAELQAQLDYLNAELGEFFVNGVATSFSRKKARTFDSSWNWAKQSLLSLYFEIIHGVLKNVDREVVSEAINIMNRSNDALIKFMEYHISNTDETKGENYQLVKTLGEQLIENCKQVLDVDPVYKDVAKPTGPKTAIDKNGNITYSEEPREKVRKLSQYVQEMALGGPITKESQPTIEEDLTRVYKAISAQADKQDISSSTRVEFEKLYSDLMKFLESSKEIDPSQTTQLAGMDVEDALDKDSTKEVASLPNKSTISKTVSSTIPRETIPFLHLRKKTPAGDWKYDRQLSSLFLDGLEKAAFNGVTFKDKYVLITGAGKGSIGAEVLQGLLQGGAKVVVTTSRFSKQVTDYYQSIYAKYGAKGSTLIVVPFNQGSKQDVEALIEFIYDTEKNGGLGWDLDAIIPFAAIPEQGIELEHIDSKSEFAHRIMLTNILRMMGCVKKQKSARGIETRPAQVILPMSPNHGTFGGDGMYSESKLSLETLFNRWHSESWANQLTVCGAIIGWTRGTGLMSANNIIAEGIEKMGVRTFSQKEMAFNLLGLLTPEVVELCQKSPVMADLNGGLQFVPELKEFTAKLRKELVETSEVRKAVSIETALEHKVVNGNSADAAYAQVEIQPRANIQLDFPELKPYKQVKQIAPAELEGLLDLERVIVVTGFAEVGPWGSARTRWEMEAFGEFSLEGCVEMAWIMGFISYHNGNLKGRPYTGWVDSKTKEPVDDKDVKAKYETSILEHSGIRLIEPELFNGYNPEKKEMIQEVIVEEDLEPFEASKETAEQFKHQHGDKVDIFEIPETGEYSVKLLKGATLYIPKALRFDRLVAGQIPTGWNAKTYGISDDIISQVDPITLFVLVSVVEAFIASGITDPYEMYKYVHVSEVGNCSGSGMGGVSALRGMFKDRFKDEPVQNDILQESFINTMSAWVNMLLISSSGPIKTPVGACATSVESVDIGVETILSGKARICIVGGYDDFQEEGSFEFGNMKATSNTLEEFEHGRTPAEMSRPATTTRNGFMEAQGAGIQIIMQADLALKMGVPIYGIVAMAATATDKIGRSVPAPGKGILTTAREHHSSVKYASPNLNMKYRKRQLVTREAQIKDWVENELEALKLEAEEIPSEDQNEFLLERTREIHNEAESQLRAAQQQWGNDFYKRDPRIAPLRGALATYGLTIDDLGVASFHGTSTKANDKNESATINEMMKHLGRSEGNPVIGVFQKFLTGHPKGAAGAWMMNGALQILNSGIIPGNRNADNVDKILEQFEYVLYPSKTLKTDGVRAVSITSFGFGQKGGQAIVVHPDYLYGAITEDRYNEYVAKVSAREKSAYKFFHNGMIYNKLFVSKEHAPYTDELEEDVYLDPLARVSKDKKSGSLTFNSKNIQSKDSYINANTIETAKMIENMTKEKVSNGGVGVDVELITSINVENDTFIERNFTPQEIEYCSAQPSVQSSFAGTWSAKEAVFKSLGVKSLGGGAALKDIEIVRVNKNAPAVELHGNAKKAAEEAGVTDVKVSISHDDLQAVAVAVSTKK
UniProt Q9UUG0: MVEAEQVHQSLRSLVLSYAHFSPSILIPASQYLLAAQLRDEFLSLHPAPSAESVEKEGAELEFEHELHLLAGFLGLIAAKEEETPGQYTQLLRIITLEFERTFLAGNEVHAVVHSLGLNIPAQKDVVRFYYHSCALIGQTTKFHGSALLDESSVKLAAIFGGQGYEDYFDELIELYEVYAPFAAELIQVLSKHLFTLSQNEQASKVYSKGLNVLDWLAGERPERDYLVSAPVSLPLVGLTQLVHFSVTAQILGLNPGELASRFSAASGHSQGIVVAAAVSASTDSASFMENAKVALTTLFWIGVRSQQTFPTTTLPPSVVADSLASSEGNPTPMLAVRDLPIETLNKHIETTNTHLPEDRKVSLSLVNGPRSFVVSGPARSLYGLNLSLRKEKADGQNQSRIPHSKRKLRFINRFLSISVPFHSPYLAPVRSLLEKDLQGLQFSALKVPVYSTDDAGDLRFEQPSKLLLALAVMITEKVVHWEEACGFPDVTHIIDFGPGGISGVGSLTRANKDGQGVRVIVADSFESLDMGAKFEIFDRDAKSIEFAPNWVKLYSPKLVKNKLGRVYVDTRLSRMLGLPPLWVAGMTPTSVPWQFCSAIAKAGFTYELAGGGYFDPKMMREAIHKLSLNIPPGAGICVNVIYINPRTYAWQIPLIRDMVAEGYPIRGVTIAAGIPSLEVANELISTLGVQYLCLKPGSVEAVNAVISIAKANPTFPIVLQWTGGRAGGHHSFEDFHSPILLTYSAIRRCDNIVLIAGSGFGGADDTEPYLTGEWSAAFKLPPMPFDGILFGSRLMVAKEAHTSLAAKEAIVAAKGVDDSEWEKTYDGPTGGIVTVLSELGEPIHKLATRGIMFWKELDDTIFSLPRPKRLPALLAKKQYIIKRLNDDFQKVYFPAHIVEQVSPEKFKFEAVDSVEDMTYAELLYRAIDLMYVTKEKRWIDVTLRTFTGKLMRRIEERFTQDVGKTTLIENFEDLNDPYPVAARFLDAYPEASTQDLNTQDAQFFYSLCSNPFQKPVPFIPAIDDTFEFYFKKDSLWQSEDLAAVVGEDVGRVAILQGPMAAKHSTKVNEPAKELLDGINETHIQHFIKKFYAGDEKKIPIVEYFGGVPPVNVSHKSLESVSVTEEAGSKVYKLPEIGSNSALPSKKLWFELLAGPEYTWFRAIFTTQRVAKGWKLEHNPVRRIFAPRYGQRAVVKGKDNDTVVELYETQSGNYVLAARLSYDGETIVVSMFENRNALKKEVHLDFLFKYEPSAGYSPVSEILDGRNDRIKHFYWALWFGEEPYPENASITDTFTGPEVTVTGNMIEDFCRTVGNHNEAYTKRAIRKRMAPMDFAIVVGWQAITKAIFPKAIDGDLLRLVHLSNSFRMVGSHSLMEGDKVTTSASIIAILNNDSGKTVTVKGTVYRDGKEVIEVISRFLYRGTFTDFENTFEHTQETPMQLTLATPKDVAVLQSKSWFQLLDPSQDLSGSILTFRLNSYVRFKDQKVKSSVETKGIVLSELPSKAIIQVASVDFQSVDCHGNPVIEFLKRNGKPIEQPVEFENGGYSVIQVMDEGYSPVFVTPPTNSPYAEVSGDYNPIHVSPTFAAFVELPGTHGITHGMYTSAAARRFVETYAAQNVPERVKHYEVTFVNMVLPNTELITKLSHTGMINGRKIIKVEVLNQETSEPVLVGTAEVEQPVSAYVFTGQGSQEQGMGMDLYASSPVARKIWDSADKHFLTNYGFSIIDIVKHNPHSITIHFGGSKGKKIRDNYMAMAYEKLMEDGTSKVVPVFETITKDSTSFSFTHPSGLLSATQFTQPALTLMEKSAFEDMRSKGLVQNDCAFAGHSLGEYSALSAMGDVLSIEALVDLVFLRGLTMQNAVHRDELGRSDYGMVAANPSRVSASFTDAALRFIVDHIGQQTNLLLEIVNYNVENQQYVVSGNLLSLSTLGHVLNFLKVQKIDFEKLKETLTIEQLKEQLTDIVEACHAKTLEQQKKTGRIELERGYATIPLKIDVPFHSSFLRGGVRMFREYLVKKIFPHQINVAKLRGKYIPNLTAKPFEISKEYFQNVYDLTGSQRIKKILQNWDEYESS
UniProt P07149: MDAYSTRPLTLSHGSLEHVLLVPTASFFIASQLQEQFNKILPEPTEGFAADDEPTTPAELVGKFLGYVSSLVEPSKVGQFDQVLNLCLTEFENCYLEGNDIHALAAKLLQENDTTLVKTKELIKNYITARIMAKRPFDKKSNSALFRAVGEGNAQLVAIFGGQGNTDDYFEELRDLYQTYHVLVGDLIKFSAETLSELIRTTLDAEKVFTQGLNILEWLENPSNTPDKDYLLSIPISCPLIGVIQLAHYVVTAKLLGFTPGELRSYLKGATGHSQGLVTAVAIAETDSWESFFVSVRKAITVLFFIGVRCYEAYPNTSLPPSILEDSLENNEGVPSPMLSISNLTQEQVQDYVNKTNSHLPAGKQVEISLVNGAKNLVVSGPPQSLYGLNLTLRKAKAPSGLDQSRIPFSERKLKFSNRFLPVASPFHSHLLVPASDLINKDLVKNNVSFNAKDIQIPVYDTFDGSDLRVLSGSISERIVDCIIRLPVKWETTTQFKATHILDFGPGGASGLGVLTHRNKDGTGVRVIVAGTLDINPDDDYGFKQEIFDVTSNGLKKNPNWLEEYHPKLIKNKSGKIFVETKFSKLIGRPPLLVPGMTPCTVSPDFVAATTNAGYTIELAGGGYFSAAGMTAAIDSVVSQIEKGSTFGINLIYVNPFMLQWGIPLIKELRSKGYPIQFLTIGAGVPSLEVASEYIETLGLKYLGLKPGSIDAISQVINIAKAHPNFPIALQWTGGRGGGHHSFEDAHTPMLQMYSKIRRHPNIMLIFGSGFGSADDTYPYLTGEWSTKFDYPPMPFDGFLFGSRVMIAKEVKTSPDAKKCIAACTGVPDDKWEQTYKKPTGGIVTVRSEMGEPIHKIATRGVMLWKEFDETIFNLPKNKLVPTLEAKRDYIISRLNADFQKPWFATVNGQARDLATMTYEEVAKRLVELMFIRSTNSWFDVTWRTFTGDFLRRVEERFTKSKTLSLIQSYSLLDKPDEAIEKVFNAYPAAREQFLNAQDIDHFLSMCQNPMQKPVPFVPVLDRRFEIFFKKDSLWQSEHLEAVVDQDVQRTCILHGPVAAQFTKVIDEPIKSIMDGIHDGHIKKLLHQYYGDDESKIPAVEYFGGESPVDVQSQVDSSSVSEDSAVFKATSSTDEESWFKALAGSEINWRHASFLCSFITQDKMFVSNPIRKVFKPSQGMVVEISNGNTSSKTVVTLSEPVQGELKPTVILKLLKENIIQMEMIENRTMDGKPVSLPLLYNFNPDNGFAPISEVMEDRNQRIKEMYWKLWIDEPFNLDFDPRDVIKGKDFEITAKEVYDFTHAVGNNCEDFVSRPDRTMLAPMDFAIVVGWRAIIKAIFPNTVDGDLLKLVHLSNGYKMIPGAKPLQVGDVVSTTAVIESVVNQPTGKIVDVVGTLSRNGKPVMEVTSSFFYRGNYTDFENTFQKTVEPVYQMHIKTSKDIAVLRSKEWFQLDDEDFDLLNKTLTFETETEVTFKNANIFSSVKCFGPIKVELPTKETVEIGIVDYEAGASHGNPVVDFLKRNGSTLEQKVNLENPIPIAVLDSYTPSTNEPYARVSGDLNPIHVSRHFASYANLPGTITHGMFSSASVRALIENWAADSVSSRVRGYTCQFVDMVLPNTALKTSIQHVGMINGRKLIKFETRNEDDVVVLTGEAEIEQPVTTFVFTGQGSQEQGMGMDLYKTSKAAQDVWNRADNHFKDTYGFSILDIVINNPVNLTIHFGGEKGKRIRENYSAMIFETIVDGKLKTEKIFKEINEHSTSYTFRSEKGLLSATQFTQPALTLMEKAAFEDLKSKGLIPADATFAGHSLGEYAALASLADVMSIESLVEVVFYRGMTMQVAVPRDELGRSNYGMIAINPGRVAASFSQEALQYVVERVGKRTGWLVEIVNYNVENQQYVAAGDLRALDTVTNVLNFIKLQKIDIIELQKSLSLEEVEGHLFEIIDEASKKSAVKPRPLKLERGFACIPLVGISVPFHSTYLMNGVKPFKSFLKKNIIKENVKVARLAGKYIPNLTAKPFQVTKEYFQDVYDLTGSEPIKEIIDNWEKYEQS

No constants are given. Whether binding was seen depends on the method and setting. Some results given as binding are weak or reduced against the parent protein; the word gives no strength.

On to “S. pombe fatty acid synthase subunit FAS1/ß (from UniProt Q9UUG0 1-2073) (enzyme)”, for which the binding result in assay [1] is recorded as “binds”.

For the substance “S. cerevisiae fatty acid synthase subunit FAS1/ß (from UniProt P07149 1-2051) (enzyme)”, the binding result in assay [2] is on record as “binds”.

These data come from doi:10.64898/2025.12.22.696049 (bioRxiv, 2025).
